Measurements published in PubChem BioAssay AID200 (DTP/NCI, 2004).
The list is a part of this screen's results and no random one: it gathers tests that were run many times, whatever their T/C, doses with no T/C, and many T/C values between a quarter and a half above the control. Other doses and runs of a compound stand elsewhere. T/C is the treated group as % of the vehicle group. Some entries give survivors of the animals treated and no T/C: the source holds a T/C of zero for them, seemingly a mark for toxic or unscored doses. Some doses without a T/C left all or most animals alive at the check, yet need not have been tolerated: survival well below the control is almost never listed, so the zero probably covers shortened survival too. Survivors were counted at the toxicity check, usually on the fifth day, unless a day is given; later deaths do not show. Schedules are NCI's codes, taken here to give the interval after Q, in days (D) or hours (H), and the number of doses after X. Some doses were run more than once; their values stand side by side, smallest first. Where survival is the endpoint, the PubChem record calls one and a half times the control and up active, and a quarter to a half above the control has no call in these data; cut-offs in other NCI protocols can differ. Some T/C values are followed by the survivors on the day toxicity was checked, most often the fifth; without a count, all were alive then. Where a SMILES comes first, the peptide text is derived from it. The star is where a group is joined. Boc = CC(C)(C)OC(=O)*

System: B6C3F1 mice, B16 melanoma ip, median survival T/C
Test: NCI In Vivo Anticancer Drug Screen. Data for tumor model B16 Melanoma (intraperitoneal) in B6C3F1 mice
Settings: T/C endpoint: median survival time, higher T/C = longer survival
Procedure, shortened: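 Tumor-bearing mice received test compound; a separate group got vehicle only. Survival was then compared, with results reported as treated over control.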

[1] = dose: 200.0 mg/kg/injection, schedule: Q01DX009 (ip), vehicle: saline
[2] = dose: 400.0 mg/kg/injection, schedule: Q01DX009 (ip), vehicle: saline with Tween-80
[3] = dose: 25.0 mg/kg/injection, schedule: Q01DX009 (ip), vehicle: saline with Tween-80
[4] = dose: 50.0 mg/kg/injection, schedule: Q01DX009 (ip), vehicle: saline with Tween-80
[5] = dose: 25.0 mg/kg/injection, schedule: Q01DX009 (ip), vehicle: saline
[6] = dose: 50.0 mg/kg/injection, schedule: Q01DX009 (ip), vehicle: saline
[7] = dose: 200.0 mg/kg/injection, schedule: Q01DX009 (ip), vehicle: saline with Tween-80
[8] = dose: 400.0 mg/kg/injection, schedule: Q01DX009 (ip), vehicle: Klucel (hydroxypropylcellulose) (HPC)
[9] = dose: 0.5 mg/kg/injection, schedule: Q01DX009 (ip), vehicle: Klucel (hydroxypropylcellulose) (HPC)
[10] = dose: 1.0 mg/kg/injection, schedule: Q01DX009 (ip), vehicle: Klucel (hydroxypropylcellulose) (HPC)
[11] = dose: 8.0 mg/kg/injection, schedule: Q01DX009 (ip), vehicle: Klucel (hydroxypropylcellulose) (HPC)
[12] = dose: 16.0 mg/kg/injection, schedule: Q01DX009 (ip), vehicle: Klucel (hydroxypropylcellulose) (HPC)

CCN1/C(=C/C(C)=C/c2sc3ccc4ccccc4c3[n+]2CC)Sc2ccc3ccccc3c21
survivor count (dose: 0.1 mg/kg/injection, schedule: Q01DX009 (ip), vehicle: saline with Tween-80): 10 of 10 | survivor count (dose: 0.2 mg/kg/injection, schedule: Q01DX009 (ip), vehicle: saline with Tween-80): 10 of 10 | survivor count (dose: 0.4 mg/kg/injection, schedule: Q01DX009 (ip), vehicle: saline with Tween-80): 10 of 10 | survivor count (dose: 0.8 mg/kg/injection, schedule: Q01DX009 (ip), vehicle: saline with Tween-80): 7 of 10

CN(C)N=Nc1cccc(C(N)=O)c1
survivor count [1]: 2 of 6

C=C(C)C(=O)OC1CC(C)(O)C2(O)CCC(C)(/C=C3\OC(=O)C(COC(C)=O)=C31)O2 (stereo unspecified)
survivor count (dose: 10.0 mg/kg/injection, schedule: Q01DX009 (ip), vehicle: distilled water + Tween-80 + alcohol): 9 of 10

CCC1CC2CN(CCc3c([nH]c4ccccc34)C(C(=O)OC)(c3cc4c(cc3OC)N(C)C3C(O)(C(=O)OC)C(OC(C)=O)C5(CC)C=CCN6CCC43C65)C2)C1 (stereo unspecified)
T/C (dose: 0.25 mg/kg/injection, schedule: Q01DX009 (ip), vehicle: saline): 143 % of control | T/C (dose: 0.25 mg/kg/injection, schedule: Q01DX009 (ip), vehicle: suspension in saline): 143 % of control | T/C (dose: 0.5 mg/kg/injection, schedule: Q01DX009 (ip), vehicle: suspension in saline): 148 % of control | T/C (dose: 1.0 mg/kg/injection, schedule: Q01DX009 (ip), vehicle: suspension in saline): 138 % of control

N#CCS(=O)(=O)c1cccc[n+]1[O-]
survivor count [2]: 6 of 8

OCC1(CO)COC2(CCCCC2)N1
T/C [1]: 134 % of control

CC(C)(C)OC(=O)NC(CCCCNC(=O)OCc1ccccc1)C(=O)O (stereo unspecified)
survivor count (dose: 100.0 mg/kg/injection, schedule: Q01DX009 (ip), vehicle: distilled water + Tween-80 + alcohol): 10 of 10

O/N=C/c1ccccc1O.O/N=C/c1ccccc1O.[Cu]
survivor count (dose: 6.25 mg/kg/injection, schedule: Q01DX009 (ip), vehicle: saline with Tween-80): 10 of 10 | survivor count [3]: 10 of 10 | survivor count [4]: 1 of 10

O=NN(CCF)C(=O)NCCO
T/C (dose: 7.5 mg/kg/injection, schedule: Q01DX001 (ip), vehicle: saline): 128 % of control | survivor count (dose: 120.0 mg/kg/injection, schedule: Q01DX001 (ip), vehicle: saline): 4 of 9 on day 6

S=c1sc2ccccc2n1CN1CCOCC1
T/C [4]: 143 % of control

Cc1nc2ccccc2c(C(=O)NO)[n+]1[O-]
survivor count (dose: 50.0 micrograms/kg/injection, schedule: Q01DX009 (ip), vehicle: other): 10 of 10 | survivor count (dose: 100.0 micrograms/kg/injection, schedule: Q01DX009 (ip), vehicle: other): 10 of 10

CCC1(O)C(=O)OCc2c1cc1n(c2=O)Cc2cc3ccccc3nc2-1 (stereo unspecified)
T/C (dose: 0.19 mg/kg/injection, schedule: Q01DX009 (ip), vehicle: other): 133 % of control | T/C (dose: 0.38 mg/kg/injection, schedule: Q01DX009 (ip), vehicle: other): 139 % of control | survivor count (dose: 3.0 mg/kg/injection, schedule: Q01DX009 (ip), vehicle: other): 10 of 10 | survivor count (dose: 6.0 mg/kg/injection, schedule: Q01DX009 (ip), vehicle: other): 10 of 10

CC1=C(C)C(=O)O[C@@H]([C@](C)(O)[C@]2(O)CC[C@@]3(O)[C@@H]4C[C@H]5O[C@]56CC=CC(=O)[C@]6(C)[C@H]4CC[C@]23C)C1
T/C (dose: 6.25 mg/kg/injection, schedule: Q01DX009 (ip), vehicle: saline): 139 % of control | T/C (dose: 12.5 mg/kg/injection, schedule: Q01DX009 (ip), vehicle: saline with Tween-80): 131 % of control | T/C (dose: 12.5 mg/kg/injection, schedule: Q01DX009 (ip), vehicle: saline): 127 % of control | T/C [3]: 140 % of control | survivor count [3]: 10 of 10 | T/C [5]: 132 % of control | survivor count [4]: 5 of 10 | T/C [6]: 128 and 130 % of control | survivor count (dose: 100.0 mg/kg/injection, schedule: Q01DX009 (ip), vehicle: saline with Tween-80): 1 of 10 | survivor count (dose: 100.0 mg/kg/injection, schedule: Q01DX009 (ip), vehicle: saline): 10 of 10 | survivor count [7]: 1 of 10 | survivor count [1]: 7 of 10 | survivor count [2]: 0 of 10

Nc1nc(-c2cccc(S(=O)(=O)O)c2)c(Br)c(=O)[nH]1
T/C [3]: 127 % of control | T/C [4]: 127 % of control

O=C(Cl)c1ccccc1S(=O)(=O)N(CCOc1ccccc1)c1ccccc1
survivor count [8]: 7 of 10

CSCCC(NC(=O)C(CC(C)C)NC(=O)OC(C)(C)C)C(N)=O (stereo not drawn) (Boc-Leu-Met-NH2; configuration not given here)
survivor count [8]: 9 of 10

C[CH2][Sn]([Cl])([CH2]C)[c]1cc[c]([Sn]([Cl])([CH2]C)[CH2]C)cc1
T/C (dose: 0.06 mg/kg/injection, schedule: Q01DX009 (ip), vehicle: Klucel (hydroxypropylcellulose) (HPC)): 106, 107 [9 of 10 alive], 108, 117 % of control | T/C (dose: 0.12 mg/kg/injection, schedule: Q01DX009 (ip), vehicle: Klucel (hydroxypropylcellulose) (HPC)): 102 [9 of 10 alive], 111, 113, 116 % of control | T/C (dose: 0.25 mg/kg/injection, schedule: Q01DX009 (ip), vehicle: Klucel (hydroxypropylcellulose) (HPC)): 104, 119, 126, 131 % of control | T/C [9]: 109 % of control | survivor count [9]: 4 of 10, 7 of 10, 8 of 10 | survivor count [10]: 0 of 10, 1 of 10, 2 of 10, 5 of 10

CNc1nc(NC)nc(NC)n1
survivor count (dose: 200.0 mg/kg/injection, schedule: Q01DX009 (ip), vehicle: Klucel (hydroxypropylcellulose) (HPC)): 9 of 10 | survivor count [8]: 0 of 10

[O-][n+]1c(CN2CCCCC2)nc2cccc3c2c1-c1ccccc1-3
survivor count [7]: 10 of 10

CC(=O)Nc1cc2oc3ccccc3c2cc1[N+](=O)[O-]
survivor count [7]: 10 of 10

Cc1cc(O)c2c(c1O)C(=O)C13C(=C2O)C(=O)C2C(O)C1C1C(O)C3C(=O)C3=C(O)c4c(O)cc(C)c(O)c4C(=O)C321 (stereo unspecified)
T/C (dose: 0.78 mg/kg/injection, schedule: Q01DX009 (ip), vehicle: saline with Tween-80): 136 % of control | T/C (dose: 1.56 mg/kg/injection, schedule: Q01DX009 (ip), vehicle: saline with Tween-80): 148 % of control | survivor count (dose: 3.12 mg/kg/injection, schedule: Q01DX009 (ip), vehicle: saline with Tween-80): 10 of 10 and 8 of 8

CC1CCC(NC(=O)N(CCCl)N=O)CC1 (stereo unspecified)
T/C [10]: 107, 109, 110, 119 [9 of 10 alive], 122 % of control | T/C (dose: 2.0 mg/kg/injection, schedule: Q01DX009 (ip), vehicle: Klucel (hydroxypropylcellulose) (HPC)): 109, 111, 113, 114, 116 % of control | T/C (dose: 4.0 mg/kg/injection, schedule: Q01DX009 (ip), vehicle: Klucel (hydroxypropylcellulose) (HPC)): 119 [9 of 10 alive], 122, 133, 141, 143 % of control | T/C (dose: 5.0 mg/kg/injection, schedule: Q01DX005 (iv), vehicle: other): 142 % of control | T/C [11]: 120, 144, 172, 197 % of control [9 of 10 alive] | survivor count [11]: 10 of 10 | T/C (dose: 10.0 mg/kg/injection, schedule: Q01DX001 (ip), vehicle: other): 126 % of control | T/C (dose: 10.0 mg/kg/injection, schedule: Q01DX005 (iv), vehicle: other): 128 % of control | T/C [12]: 104 and 151 % of control | survivor count [12]: 10 of 10 and 9 of 9 | survivor count (dose: 20.0 mg/kg/injection, schedule: Q01DX005 (ip), vehicle: other): 10 of 10 | survivor count (dose: 20.0 mg/kg/injection, schedule: Q01DX005 (iv), vehicle: other): 2 of 10 | survivor count (dose: 80.0 mg/kg/injection, schedule: Q01DX001 (ip), vehicle: other): 9 of 10 | survivor count (dose: 80.0 mg/kg/injection, schedule: Q01DX001 (iv), vehicle: other): 10 of 10

OCCN1CCN(CC/C=C2/c3ccccc3Sc3ccc(Cl)cc32)CC1
survivor count [5]: 9 of 10 | survivor count [6]: 7 of 10
